Source: the supplement of paper PMC10849652
This is one part of the list.

Protein sequences, listed by entry. Tags and fused reporters are not part of them. Lines headed by an entry give the natural chain unless they say otherwise; changes in a name come on top.
UniProt Q9UHD1: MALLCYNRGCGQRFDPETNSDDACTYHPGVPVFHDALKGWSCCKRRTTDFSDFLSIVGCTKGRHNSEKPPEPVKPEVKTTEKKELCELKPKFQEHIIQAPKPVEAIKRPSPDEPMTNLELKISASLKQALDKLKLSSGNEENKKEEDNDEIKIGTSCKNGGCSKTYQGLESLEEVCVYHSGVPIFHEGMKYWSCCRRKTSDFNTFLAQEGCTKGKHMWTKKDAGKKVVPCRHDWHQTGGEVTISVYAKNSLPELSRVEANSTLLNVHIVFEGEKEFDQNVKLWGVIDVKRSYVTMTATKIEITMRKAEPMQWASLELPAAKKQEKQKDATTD
UniProt P0C7P0: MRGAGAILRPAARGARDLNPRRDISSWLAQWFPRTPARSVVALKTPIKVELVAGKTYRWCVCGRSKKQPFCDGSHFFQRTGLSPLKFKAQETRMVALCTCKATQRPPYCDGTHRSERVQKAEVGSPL
UniProt Q92600, whole entry, looked up: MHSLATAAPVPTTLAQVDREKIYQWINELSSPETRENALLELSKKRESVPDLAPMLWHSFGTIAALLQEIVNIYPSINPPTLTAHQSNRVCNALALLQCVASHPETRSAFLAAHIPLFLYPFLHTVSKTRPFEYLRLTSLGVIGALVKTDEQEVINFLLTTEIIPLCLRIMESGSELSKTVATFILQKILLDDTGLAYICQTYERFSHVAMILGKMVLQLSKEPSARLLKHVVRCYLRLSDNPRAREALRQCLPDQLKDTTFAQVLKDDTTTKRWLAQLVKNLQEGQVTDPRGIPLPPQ
UniProt O75175, whole entry, looked up: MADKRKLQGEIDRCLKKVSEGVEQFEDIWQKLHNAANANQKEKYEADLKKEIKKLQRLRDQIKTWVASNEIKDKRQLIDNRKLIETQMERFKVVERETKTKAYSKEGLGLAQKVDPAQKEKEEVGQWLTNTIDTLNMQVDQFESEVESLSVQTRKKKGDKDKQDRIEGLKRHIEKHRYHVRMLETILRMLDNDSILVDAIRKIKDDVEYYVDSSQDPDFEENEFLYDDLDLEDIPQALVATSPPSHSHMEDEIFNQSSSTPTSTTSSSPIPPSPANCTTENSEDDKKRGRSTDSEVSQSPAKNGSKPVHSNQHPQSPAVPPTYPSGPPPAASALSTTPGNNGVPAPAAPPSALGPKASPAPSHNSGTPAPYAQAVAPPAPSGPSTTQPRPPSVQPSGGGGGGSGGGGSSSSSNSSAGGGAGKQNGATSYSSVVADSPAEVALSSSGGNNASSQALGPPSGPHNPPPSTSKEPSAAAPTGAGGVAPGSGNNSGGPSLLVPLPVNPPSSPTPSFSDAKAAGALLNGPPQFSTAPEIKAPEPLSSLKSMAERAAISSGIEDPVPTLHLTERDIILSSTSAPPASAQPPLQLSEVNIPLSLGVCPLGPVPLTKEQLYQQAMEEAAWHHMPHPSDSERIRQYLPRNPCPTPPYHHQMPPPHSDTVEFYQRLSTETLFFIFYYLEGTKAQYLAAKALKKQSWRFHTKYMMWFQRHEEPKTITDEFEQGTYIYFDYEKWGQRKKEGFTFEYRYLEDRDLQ
UniProt Q6PJW8: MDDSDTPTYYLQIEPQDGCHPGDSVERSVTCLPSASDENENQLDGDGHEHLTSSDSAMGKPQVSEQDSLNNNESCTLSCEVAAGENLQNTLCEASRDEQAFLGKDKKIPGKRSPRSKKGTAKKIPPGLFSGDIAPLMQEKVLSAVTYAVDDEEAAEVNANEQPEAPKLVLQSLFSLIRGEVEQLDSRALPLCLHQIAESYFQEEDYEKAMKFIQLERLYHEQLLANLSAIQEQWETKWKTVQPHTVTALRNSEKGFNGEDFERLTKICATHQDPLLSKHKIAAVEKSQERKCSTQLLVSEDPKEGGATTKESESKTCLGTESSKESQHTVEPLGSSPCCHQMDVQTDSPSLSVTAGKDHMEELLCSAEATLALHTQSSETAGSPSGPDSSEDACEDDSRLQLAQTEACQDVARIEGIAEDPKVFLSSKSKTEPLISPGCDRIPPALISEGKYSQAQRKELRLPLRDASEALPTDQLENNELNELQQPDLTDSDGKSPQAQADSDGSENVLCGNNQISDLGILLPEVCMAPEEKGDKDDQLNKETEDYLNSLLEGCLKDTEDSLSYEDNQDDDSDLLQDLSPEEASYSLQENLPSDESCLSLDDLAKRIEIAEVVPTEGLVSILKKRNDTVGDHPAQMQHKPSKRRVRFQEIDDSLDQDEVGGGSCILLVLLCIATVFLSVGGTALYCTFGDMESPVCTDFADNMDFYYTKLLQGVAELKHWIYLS
UniProt Q8WUH1: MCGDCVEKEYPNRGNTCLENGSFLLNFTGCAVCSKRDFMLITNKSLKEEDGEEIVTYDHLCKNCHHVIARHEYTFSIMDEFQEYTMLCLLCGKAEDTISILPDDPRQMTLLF
UniProt Q9H5X1: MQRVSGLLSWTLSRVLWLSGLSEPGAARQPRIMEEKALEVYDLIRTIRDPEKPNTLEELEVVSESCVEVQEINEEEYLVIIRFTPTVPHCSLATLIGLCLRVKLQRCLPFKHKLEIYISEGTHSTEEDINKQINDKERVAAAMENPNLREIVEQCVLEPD
UniProt P54105: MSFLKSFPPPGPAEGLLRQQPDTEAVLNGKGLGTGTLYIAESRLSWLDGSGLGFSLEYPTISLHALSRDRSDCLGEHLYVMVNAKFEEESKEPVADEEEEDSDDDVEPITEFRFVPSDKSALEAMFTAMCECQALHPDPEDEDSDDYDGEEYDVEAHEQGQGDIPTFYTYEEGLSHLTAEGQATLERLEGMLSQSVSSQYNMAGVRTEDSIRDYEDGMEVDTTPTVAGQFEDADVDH
UniProt Q9H078: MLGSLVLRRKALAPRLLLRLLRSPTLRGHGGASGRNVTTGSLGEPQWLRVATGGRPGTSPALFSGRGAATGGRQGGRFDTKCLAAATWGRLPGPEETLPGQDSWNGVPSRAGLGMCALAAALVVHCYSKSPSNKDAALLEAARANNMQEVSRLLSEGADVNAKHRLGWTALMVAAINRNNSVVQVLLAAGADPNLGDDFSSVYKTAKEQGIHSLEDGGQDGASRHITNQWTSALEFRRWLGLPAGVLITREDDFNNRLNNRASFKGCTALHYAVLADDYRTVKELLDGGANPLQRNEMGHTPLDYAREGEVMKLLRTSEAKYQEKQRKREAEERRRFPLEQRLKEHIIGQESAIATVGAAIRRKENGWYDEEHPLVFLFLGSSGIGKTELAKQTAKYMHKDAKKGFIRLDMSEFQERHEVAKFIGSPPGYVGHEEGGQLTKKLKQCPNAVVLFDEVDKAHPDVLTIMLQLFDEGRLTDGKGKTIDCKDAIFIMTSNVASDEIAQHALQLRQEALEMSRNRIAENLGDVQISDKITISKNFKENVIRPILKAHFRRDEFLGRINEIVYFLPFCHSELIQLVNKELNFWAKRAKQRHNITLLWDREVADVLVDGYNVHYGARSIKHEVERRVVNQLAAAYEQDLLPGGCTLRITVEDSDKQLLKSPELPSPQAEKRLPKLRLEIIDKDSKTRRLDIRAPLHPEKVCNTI
UniProt Q14011: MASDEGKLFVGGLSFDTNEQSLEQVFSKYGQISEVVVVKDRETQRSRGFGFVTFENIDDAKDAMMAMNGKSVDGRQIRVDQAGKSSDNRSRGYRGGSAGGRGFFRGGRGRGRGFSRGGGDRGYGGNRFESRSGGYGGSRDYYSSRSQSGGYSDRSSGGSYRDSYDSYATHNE
UniProt Q9Y2R0: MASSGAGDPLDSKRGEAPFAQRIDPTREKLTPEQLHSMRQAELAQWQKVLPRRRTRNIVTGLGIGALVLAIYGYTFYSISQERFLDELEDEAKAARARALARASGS
UniProt O96005: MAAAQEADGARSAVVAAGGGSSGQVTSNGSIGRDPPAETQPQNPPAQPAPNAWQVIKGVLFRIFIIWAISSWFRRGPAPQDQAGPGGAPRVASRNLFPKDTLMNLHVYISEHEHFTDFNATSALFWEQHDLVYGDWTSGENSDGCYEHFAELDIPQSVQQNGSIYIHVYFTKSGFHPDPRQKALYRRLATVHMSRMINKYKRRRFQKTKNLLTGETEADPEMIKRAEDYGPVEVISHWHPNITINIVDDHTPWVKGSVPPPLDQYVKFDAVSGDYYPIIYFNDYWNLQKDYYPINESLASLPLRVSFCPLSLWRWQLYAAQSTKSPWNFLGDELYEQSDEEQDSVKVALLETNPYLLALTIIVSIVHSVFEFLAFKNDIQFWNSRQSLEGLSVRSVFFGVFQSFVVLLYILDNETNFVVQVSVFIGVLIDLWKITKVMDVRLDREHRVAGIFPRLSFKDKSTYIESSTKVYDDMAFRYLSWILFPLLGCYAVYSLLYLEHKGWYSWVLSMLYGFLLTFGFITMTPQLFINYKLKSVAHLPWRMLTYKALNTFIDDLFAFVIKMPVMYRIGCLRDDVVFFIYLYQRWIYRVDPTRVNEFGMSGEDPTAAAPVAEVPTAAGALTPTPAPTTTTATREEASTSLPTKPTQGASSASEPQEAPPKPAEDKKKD
UniProt Q8N5K1: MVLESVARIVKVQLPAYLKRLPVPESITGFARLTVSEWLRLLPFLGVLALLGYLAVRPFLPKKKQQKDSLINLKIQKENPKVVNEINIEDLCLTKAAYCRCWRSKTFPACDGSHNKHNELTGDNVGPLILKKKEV
UniProt Q7Z7K0: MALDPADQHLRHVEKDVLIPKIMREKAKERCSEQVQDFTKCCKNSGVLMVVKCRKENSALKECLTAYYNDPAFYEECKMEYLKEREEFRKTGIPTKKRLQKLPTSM
UniProt Q99828: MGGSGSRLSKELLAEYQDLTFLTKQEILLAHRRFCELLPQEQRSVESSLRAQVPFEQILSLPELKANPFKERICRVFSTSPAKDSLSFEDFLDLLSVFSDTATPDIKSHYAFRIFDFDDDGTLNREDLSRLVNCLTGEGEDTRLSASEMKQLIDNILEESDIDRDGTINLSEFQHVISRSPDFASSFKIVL
UniProt O15247: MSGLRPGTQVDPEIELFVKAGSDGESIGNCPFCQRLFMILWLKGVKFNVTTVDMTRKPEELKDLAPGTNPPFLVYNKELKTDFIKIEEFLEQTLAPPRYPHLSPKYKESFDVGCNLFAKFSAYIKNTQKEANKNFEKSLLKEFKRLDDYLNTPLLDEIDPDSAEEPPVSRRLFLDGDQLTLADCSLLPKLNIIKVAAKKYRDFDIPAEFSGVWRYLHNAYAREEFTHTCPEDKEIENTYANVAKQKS
UniProt Q5EBM0: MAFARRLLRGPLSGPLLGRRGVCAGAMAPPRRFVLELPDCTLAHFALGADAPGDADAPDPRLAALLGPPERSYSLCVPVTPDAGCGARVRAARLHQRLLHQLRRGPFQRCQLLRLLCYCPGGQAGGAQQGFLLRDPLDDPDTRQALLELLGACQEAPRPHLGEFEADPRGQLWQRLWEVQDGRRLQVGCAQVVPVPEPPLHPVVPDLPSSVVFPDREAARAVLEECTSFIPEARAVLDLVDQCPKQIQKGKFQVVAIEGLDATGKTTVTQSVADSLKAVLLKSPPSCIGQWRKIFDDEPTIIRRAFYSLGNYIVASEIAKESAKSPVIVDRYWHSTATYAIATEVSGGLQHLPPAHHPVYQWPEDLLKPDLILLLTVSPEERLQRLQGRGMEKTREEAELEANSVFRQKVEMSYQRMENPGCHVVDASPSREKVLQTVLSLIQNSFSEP
UniProt Q6FI81: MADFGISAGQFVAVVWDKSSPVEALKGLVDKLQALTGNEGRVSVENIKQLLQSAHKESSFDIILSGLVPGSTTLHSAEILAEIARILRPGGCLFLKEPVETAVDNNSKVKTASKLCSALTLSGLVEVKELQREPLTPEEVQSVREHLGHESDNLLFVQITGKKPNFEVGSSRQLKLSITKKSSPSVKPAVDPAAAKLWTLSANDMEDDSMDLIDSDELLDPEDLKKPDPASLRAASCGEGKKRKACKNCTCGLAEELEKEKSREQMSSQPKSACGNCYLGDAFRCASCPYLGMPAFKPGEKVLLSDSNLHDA
UniProt Q9Y2B0: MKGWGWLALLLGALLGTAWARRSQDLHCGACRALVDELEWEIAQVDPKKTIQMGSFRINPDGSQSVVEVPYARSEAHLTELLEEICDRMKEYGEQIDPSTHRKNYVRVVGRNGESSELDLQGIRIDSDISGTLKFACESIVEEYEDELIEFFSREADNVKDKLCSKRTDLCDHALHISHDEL
UniProt Q9ULM6, whole entry, looked up: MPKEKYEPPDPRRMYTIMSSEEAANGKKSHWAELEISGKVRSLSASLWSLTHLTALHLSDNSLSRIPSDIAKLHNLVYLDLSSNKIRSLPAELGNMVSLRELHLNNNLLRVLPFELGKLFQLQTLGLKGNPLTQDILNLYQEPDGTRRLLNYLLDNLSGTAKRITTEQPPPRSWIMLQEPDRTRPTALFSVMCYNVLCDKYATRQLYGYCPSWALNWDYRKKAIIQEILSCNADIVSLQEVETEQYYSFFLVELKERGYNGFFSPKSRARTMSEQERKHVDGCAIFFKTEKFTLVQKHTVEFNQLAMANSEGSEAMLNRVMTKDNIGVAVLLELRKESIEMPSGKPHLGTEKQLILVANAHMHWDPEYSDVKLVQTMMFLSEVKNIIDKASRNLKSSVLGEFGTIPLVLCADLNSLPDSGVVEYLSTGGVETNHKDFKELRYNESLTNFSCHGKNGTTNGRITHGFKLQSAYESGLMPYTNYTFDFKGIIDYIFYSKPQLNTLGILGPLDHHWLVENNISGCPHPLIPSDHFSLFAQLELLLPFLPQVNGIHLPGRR

Legend:
Assay in all cases: log2 fold change, soluble protein after heating vs DMSO (PISA); higher = thermal stabilisation; K562 cells, 10 uM, 30 min; active = over 0.2 and 3.5 SD of the protein, either way, in both replicates (recomputed)
[1] = compound: NC(=O)Nc1cc(-c2cccc(F)c2)sc1C(=O)N[C@H]1CCCNC1
How it was run: (§1)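 Values are thermal stability changes relative to control samples and are taken from duplicates. They are stated as log2 fold changes. Before quantification by TMTpro 16plex LC-MS/MS with equalised channel sums, K562 cells at 2×10^6 cells/mL were treated with 10 μM compound for 30 min, heated in aliquots for 3 min across 48°C-58°C, pooled, extracted in PBS with 0.5% NP-40 at 4°C, and centrifuged at 21,000xg for 90 min to give the soluble supernatant.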

[2] = compound: NC(=O)c1cnc(N[C@@H]2CCCC[C@@H]2N)nc1Nc1cccc(-n2nccn2)c1
How it was run: as §1

[3] = compound: NC1(c2ccc(-c3nc4ccn5c(=O)[nH]nc5c4cc3-c3ccccc3)cc2)CCC1
How it was run: as §1

[4] = compound: NCC(=O)Nc1ccc(-n2nc(C(F)(F)F)cc2-c2ccc3c(ccc4ccccc43)c2)cc1
How it was run: as §1

entinostat = compound: Nc1ccccc1NC(=O)c1ccc(CNC(=O)OCc2cccnc2)cc1 [entinostat]
How it was run: as §1

vorinostat = compound: O=C(CCCCCCC(=O)Nc1ccccc1)NO [vorinostat]
How it was run: as §1

citarinostat = compound: O=C(CCCCCCNC(=O)c1cnc(N(c2ccccc2)c2ccccc2Cl)nc1)NO [citarinostat]
How it was run: as §1

silmitasertib = compound: O=C(O)c1ccc2c(c1)nc(Nc1cccc(Cl)c1)c1ccncc12 [silmitasertib]
How it was run: as §1

[5] = compound: O=C1NC(=O)C(c2cnc3ccccn23)=C1c1cn2c3c(cc(F)cc13)CN(C(=O)N1CCCCC1)CC2
How it was run: as §1

[6] = compound: c1cc(OCCN2CCCCC2)cc(-c2n[nH]c3ccc(-c4nnc[nH]4)cc23)c1
How it was run: as §1

entospletinib = compound: c1cn2cc(-c3ccc4cn[nH]c4c3)nc(Nc3ccc(N4CCOCC4)cc3)c2n1 [entospletinib]
How it was run: as §1

Measured: log2 fold change

CHURC1-FNTB (UniProt B4DL54)
inactive: [1] -0.044 | [2] -0.002 | [3] -0.03 | [4] 0.159 | entinostat -0.016 | vorinostat -0.101 | citarinostat 0.073 | silmitasertib 0.109 | [5] -0.098 | [6] -0.07 | entospletinib 0.027

CLTA isoform 2 (UniProt P09496)
inactive: [1] 0.074 | [2] 0.05 | [3] 0.017 | [4] 0.095 | entinostat -0.073 | vorinostat -0.052 | citarinostat -0.092 | silmitasertib 0.017 | [5] 0.012 | [6] -0.072 | entospletinib 0.056

CHORDC1 (UniProt Q9UHD1)
inactive: [1] -0.005 | [2] -0.067 | [3] -0.067 | [4] -0.04 | entinostat -0.002 | vorinostat -0.001 | citarinostat 0.037 | silmitasertib -0.013 | [5] -0.028 | [6] 0.018 | entospletinib 0.028

COA7 (UniProt Q96BR5)
inactive: [1] 0 | [2] 0.01 | [3] -0.073 | [4] 0.044 | entinostat -0.007 | vorinostat 0.011 | citarinostat 0.054 | silmitasertib -0.02 | [5] -0.007 | [6] -0.026 | entospletinib -0.079

CMBL (UniProt Q96DG6)
inactive: [1] -0.002 | [2] -0.03 | [3] 0.17 | [4] -0.029 | entinostat -0.044 | vorinostat 0.023 | citarinostat 0.026 | silmitasertib -0.017 | [5] -0.002 | [6] 0.004 | entospletinib 0.008

CISD3 (UniProt P0C7P0)
inactive: [1] -0.07 | [2] 0.046 | [3] -0.146 | [4] -0.102 | entinostat 0.046 | vorinostat -0.082 | citarinostat 0.028 | silmitasertib 0.009 | [5] 0.027 | [6] -0.036 | entospletinib 0.014

CNOT9 isoform 2 (UniProt Q92600)
inactive: [1] -0.047 | [2] 0.061 | [3] -0.046 | [4] -0.033 | entinostat 0.061 | vorinostat -0.007 | citarinostat 0.044 | silmitasertib 0.035 | [5] 0.023 | [6] -0.039 | entospletinib -0.032

CNOT3 (UniProt O75175)
inactive: [1] 0 | [2] -0.031 | [3] -0.045 | [4] 0.057 | entinostat 0.005 | vorinostat 0.081 | citarinostat 0.072 | silmitasertib 0.017 | [5] 0.006 | [6] -0.01 | entospletinib 0.004

CMAS (UniProt Q8NFW8)
inactive: [1] 0.002 | [2] 0.042 | [3] 0.171 | [4] 0.019 | entinostat -0.016 | vorinostat 0.029 | citarinostat -0.055 | silmitasertib 0.174 | [5] 0.137 | [6] -0.093 | entospletinib 0.036

CNST (UniProt Q6PJW8)
inactive: [1] 0.025 | [2] -0.027 | [3] -0.111 | [4] -0.031 | entinostat -0.023 | vorinostat 0.044 | citarinostat 0.065 | silmitasertib 0.011 | [5] -0.015 | [6] 0.039 | entospletinib -0.033

CHURC1 isoform 2 (UniProt Q8WUH1)
inactive: [1] -0.008 | [2] -0.031 | [3] 0.015 | [4] -0.021 | entinostat -0.026 | vorinostat -0.038 | citarinostat 0.068 | silmitasertib -0.061 | [5] -0.124 | [6] -0.066 | entospletinib -0.033

CIAO2A (UniProt Q9H5X1)
inactive: [1] -0.034 | [2] -0.073 | [3] -0.03 | [4] 0.004 | entinostat -0.008 | vorinostat -0.006 | citarinostat -0.04 | silmitasertib -0.041 | [5] -0.018 | [6] 0.009 | entospletinib -0.011

2 neighbouring entries from above, quoted:
CMAS (UniProt Q8NFW8)
inactive: [1] 0.002 | [2] 0.042 | [3] 0.171 | [4] 0.019 | entinostat -0.016 | vorinostat 0.029 | citarinostat -0.055 | silmitasertib 0.174 | [5] 0.137 | [6] -0.093 | entospletinib 0.036

CNST (UniProt Q6PJW8)
inactive: [1] 0.025 | [2] -0.027 | [3] -0.111 | [4] -0.031 | entinostat -0.023 | vorinostat 0.044 | citarinostat 0.065 | silmitasertib 0.011 | [5] -0.015 | [6] 0.039 | entospletinib -0.033

(continued)

CMSS1 (UniProt Q9BQ75)
inactive: [1] 0.029 | [2] 0.033 | [3] 0.055 | [4] -0.041 | entinostat 0.017 | vorinostat 0.036 | citarinostat 0.072 | silmitasertib 0.031 | [5] 0.079 | [6] -0.028 | entospletinib -0.034

CLNS1A (UniProt P54105)
inactive: [1] 0.017 | [2] -0.018 | [3] 0.024 | [4] 0.005 | entinostat 0.02 | vorinostat 0.014 | citarinostat 0.019 | silmitasertib -0.022 | [5] -0.042 | [6] 0.019 | entospletinib 0.046

CLPB isoform 2 (UniProt Q9H078)
inactive: [1] -0.006 | [2] -0.115 | [3] -0.119 | [4] 0.028 | entinostat 0.022 | vorinostat 0.098 | citarinostat 0.011 | silmitasertib -0.005 | [5] -0.009 | [6] -0.029 | entospletinib 0.002

CIRBP isoform 2 (UniProt Q14011)
inactive: [1] 0.019 | [2] 0.006 | [3] 0.219 | [4] 0.022 | entinostat -0.019 | vorinostat -0.053 | citarinostat -0.089 | silmitasertib 0.087 | [5] 0.14 | [6] -0.12 | entospletinib 0.097

COA3 (UniProt Q9Y2R0)
inactive: [1] -0.04 | [2] 0.029 | [3] 0.018 | [4] 0 | entinostat 0.013 | vorinostat -0.021 | citarinostat -0.027 | silmitasertib 0.015 | [5] -0.019 | [6] -0.067 | entospletinib 0.041

CLPTM1 (UniProt O96005)
inactive: [1] 0.029 | [2] -0.021 | [3] -0.029 | [4] -0.048 | entinostat 0.002 | vorinostat -0.015 | citarinostat 0.016 | silmitasertib 0.018 | [5] 0.086 | [6] -0.014 | entospletinib -0.009

CISD2 (UniProt Q8N5K1)
inactive: [1] 0.027 | [2] 0.006 | [3] 0.022 | [4] 0.007 | entinostat 0.006 | vorinostat -0.05 | citarinostat 0.015 | silmitasertib -0.003 | [5] 0.002 | [6] -0.034 | entospletinib 0

CLIC4 (UniProt Q9Y696)
inactive: [1] -0.032 | [2] -0.018 | [3] -0.02 | [4] -0.069 | entinostat -0.004 | vorinostat -0.031 | citarinostat 0.046 | silmitasertib 0.019 | [5] -0.061 | [6] 0.006 | entospletinib -0.026

CMC1 (UniProt Q7Z7K0)
inactive: [1] 0.037 | [2] 0.104 | [3] -0.04 | [4] 0.02 | entinostat 0.004 | vorinostat -0.097 | citarinostat 0.042 | silmitasertib 0.133 | [5] 0.033 | [6] -0.014 | entospletinib 0.055

CIB1 isoform 2 (UniProt Q99828)
inactive: [1] -0.118 | [2] 0.008 | [3] -0.016 | [4] -0.095 | entinostat 0.041 | vorinostat 0.001 | citarinostat 0.048 | silmitasertib 0.072 | [5] -0.025 | [6] -0.073 | entospletinib 0.026

CLIC2 (UniProt O15247)
inactive: [1] -0.039 | [2] 0 | [3] -0.065 | [4] -0.051 | entinostat 0.084 | vorinostat 0.091 | citarinostat 0.086 | silmitasertib 0.029 | [5] -0.028 | [6] -0.039 | entospletinib -0.008

CMPK2 (UniProt Q5EBM0)
inactive: [1] 0.002 | [2] -0.076 | [3] -0.106 | [4] -0.043 | entinostat -0.024 | vorinostat -0.003 | citarinostat -0.02 | silmitasertib -0.021 | [5] -0.04 | [6] -0.025 | entospletinib -0.033

CIAPIN1 (UniProt Q6FI81)
inactive: [1] -0.055 | [2] -0.042 | [3] -0.113 | [4] -0.048 | entinostat 0.022 | vorinostat 0.021 | citarinostat 0.043 | silmitasertib 0.029 | [5] -0.038 | [6] 0.004 | entospletinib -0.087

CNPY2 (UniProt Q9Y2B0)
inactive: [1] -0.017 | [2] 0.008 | [3] -0.045 | [4] -0.013 | entinostat -0.007 | vorinostat 0.007 | citarinostat -0.011 | silmitasertib -0.012 | [5] -0.004 | [6] -0.016 | entospletinib -0.001

CNOT6 (UniProt Q9ULM6)
inactive: [1] 0.057 | [2] -0.087 | [3] 0.001 | [4] 0.1 | entinostat 0.064 | vorinostat 0.06 | citarinostat -0.054 | silmitasertib 0.054 | [6] 0.042 | entospletinib -0.073
